{"sequences": {"note": "Protein sequences, listed by entry. Tags and fused reporters are not part of them.", "UniProt Q0JBA9, entry or part of it": "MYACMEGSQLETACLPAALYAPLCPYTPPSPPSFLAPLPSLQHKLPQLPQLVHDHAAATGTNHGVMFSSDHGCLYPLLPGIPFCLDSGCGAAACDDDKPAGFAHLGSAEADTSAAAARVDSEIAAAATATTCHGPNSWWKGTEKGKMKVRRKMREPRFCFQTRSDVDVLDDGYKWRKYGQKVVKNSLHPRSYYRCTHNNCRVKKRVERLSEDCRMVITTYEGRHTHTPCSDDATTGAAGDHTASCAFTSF"}, "source": "paper PMC7819943", "about": "“Rice protein-binding microarrays: a tool to detect cis-acting elements near promoter regions in rice”", "note": "The list shows a part of the results."}
{"biological_target": "OsWRKY34 (Oryza sativa, UniProt Q0JBA9 1-250)", "experiment": "protein-binding microarray (RPBM); PBS, 2% BSA, 51.3 ng/ul salmon testes DNA, 50 uM zinc acetate, 200 nM TF, 25 C, 1 h; high values mean tight binding", "details": "protein: recombinant; tags: N-terminal polyhistidine and DsRed monomer fusion (pET32a); label: CyDye5-dUTP incorporated in the synthesized complementary strand; 3' TTTTT single-stranded linker to array surface; dsDNA, one strand shown", "outline": "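Using Ni–NTA, transcription factors fused N-terminally to polyhistidine and DsRed were purified after expression in E. coli BL21-CodonPlus. These were incubated at 200 nM with a blocked, double-stranded custom Agilent array for 1 h at 25 °C in a buffer containing 50 µM zinc acetate, and the array was washed. The binding signal is per-feature fluorescence intensity (arbitrary units) on an Axon 4000B scanner.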"}
{"sequence": "TGTTGTCATGAATAAAATCTTCACTTGTGCTGTCATTATTCGGAGTCACCTAGTGCAG", "binding signal": "8240 fluorescence intensity (a.u.)"}
{"sequence": "ATCCCAAGTTGCCTTTTCATTGCTATATAAACTAGCTTGACGGAGTCACCTAGTGCAG", "binding signal": "10500 fluorescence intensity (a.u.)"}
{"sequence": "GGGAGGGGTGAATGGTCATGATGAATGATGTTGCTGCATTCGGAGTCACCTAGTGCAG", "binding signal": "9590 fluorescence intensity (a.u.)"}
{"sequence": "ACATATCTCCTCTCTGTATTTAGTCCCGCATTTTGAGAAGCGGAGTCACCTAGTGCAG", "binding signal": "8050 fluorescence intensity (a.u.)"}
{"sequence": "AGCTTCAACCACGTACATGTTGTTTCTCTGTATGCTTCTACGGAGTCACCTAGTGCAG", "binding signal": "8960 fluorescence intensity (a.u.)"}
{"sequence": "TGCATTACAATGTACAATAAAAATTTTCCTCGTTTGGGTTCGGAGTCACCTAGTGCAG", "binding signal": "10600 fluorescence intensity (a.u.)"}
{"sequence": "GGGAAGGGGAGGGGTGGGCGGAAGGGGACGCCGGTGGTGGCGGAGTCACCTAGTGCAG", "binding signal": "17900 fluorescence intensity (a.u.)"}
{"sequence": "AATACAGTTTTACGCTATTCATGTTCAACGTTTGACGTTCCGGAGTCACCTAGTGCAG", "binding signal": "8500 fluorescence intensity (a.u.)"}
{"sequence": "ATCTTGTTTCTGGCCTTATGTGCGAAGCCCACAGCGACTACGGAGTCACCTAGTGCAG", "binding signal": "10800 fluorescence intensity (a.u.)"}
{"sequence": "CTCTCTACCTACACACTTTTTCTCGAATTTGCGTTAACCCCGGAGTCACCTAGTGCAG", "binding signal": "8090 fluorescence intensity (a.u.)"}
{"sequence": "ATACATGACGCCGTTGATTTTTTAATCAACGTTTGACCATCGGAGTCACCTAGTGCAG", "binding signal": "8210 fluorescence intensity (a.u.)"}
{"sequence": "GGGAGTGGGGTGGCATGGTGGGTTTTTCACCCAATAATTTCGGAGTCACCTAGTGCAG", "binding signal": "9890 fluorescence intensity (a.u.)"}
{"sequence": "GGTTTTTGGTCAGGTCTGTGTTTACCTCGAATTCGAAAAGCGGAGTCACCTAGTGCAG", "binding signal": "10200 fluorescence intensity (a.u.)"}
{"sequence": "GCTCGTCTCTCGCGTTAACCCCTCGTGGCCTCAGCTCGTCCGGAGTCACCTAGTGCAG", "binding signal": "8580 fluorescence intensity (a.u.)"}
{"sequence": "GCTCATTGTGTTGTTCTTATTATCTTTACCCTCTACATCACGGAGTCACCTAGTGCAG", "binding signal": "13300 fluorescence intensity (a.u.)"}
{"sequence": "CCAATTTTCCCAGGCTCTGCAACGTCTATCTTTTCATTTCCGGAGTCACCTAGTGCAG", "binding signal": "10100 fluorescence intensity (a.u.)"}
{"sequence": "GCGTGGCGGAGGGTGGGGATGGCGTGAGCTTCAGACTGCCCGGAGTCACCTAGTGCAG", "binding signal": "11000 fluorescence intensity (a.u.)"}
{"sequence": "GAATTTTCTGTGACATTTGCTAGTTGGTGTACACTTTATACGGAGTCACCTAGTGCAG", "binding signal": "10500 fluorescence intensity (a.u.)"}
{"sequence": "AACTCTTGATGACACGCTGCCTTTTCTTTACACGGACGAACGGAGTCACCTAGTGCAG", "binding signal": "8140 fluorescence intensity (a.u.)"}
{"sequence": "TGGTGAGCTTCCTTTTCATCCATGGTGCCTCTTTTGAATTCGGAGTCACCTAGTGCAG", "binding signal": "10600 fluorescence intensity (a.u.)"}
{"sequence": "TTTGGCTGGGTTGTGGGTCCCGAATTAGAGGTGGGGAGTGCGGAGTCACCTAGTGCAG", "binding signal": "9060 fluorescence intensity (a.u.)"}
{"sequence": "TTTTCCCCATCACGCGATTGTATTTGTTGCCTCCGAGAGACGGAGTCACCTAGTGCAG", "binding signal": "8930 fluorescence intensity (a.u.)"}
{"sequence": "CTCCGGATTTCCTGGTTTTTTTTTCTTCTTCTTCGTCGTCCGGAGTCACCTAGTGCAG", "binding signal": "10700 fluorescence intensity (a.u.)"}
{"sequence": "TGCAGCTACACCCACTACTCCTCATCTCTCCTCTTCTTTACGGAGTCACCTAGTGCAG", "binding signal": "10600 fluorescence intensity (a.u.)"}
{"sequence": "TGGGTGGGTGCGGCGTGGAGTGACGTGGCGGCGGGTGTGGCGGAGTCACCTAGTGCAG", "binding signal": "8590 fluorescence intensity (a.u.)"}
{"sequence": "TTCTTCTATCATGCCTAGCGCATGCTCACGAGTCAAGCCACGGAGTCACCTAGTGCAG", "binding signal": "10400 fluorescence intensity (a.u.)"}
{"sequence": "TTTTCTTCTCCTCGACGATCTTCTTCACGGCCGCCGGCGTCGGAGTCACCTAGTGCAG", "binding signal": "9940 fluorescence intensity (a.u.)"}
{"sequence": "ATTTTGTGATTTCGTATCATTGTATTGGTTGCAGGTCATTCGGAGTCACCTAGTGCAG", "binding signal": "8840 fluorescence intensity (a.u.)"}
{"sequence": "GCGAAAATATCCCTGCCCGGCTGCCTCTCTTCCATTCCGTCGGAGTCACCTAGTGCAG", "binding signal": "8480 fluorescence intensity (a.u.)"}
{"sequence": "GCCAAAATAATACTATCACCTTGACTTTGCCTTGACTTACCGGAGTCACCTAGTGCAG", "binding signal": "9720 fluorescence intensity (a.u.)"}
{"sequence": "GTGTAAATTAAATTTGGCGTTTTGTATTTGTGGAGGGACACGGAGTCACCTAGTGCAG", "binding signal": "8960 fluorescence intensity (a.u.)"}
{"sequence": "ATGGTTTATCTTTTTTTTTTTAACCTGGTCATGTCATTCTCGGAGTCACCTAGTGCAG", "binding signal": "10000 fluorescence intensity (a.u.)"}
{"sequence": "GGAGGTGGGGAGGGGAGGAGAGGGGAAGAAGGAAGAAAAACGGAGTCACCTAGTGCAG", "binding signal": "13300 fluorescence intensity (a.u.)"}
{"sequence": "AACCTATTTTTACGAGATATTTAACTGTTTACTACTTTTACGGAGTCACCTAGTGCAG", "binding signal": "8060 fluorescence intensity (a.u.)"}
{"sequence": "TCGCCCGCCCGCGGATCGCTCTCGCGCTGCCGAATCTCAACGGAGTCACCTAGTGCAG", "binding signal": "10000 fluorescence intensity (a.u.)"}
{"sequence": "CGTGTCTTGTGTGTTTCCTGTCTCGCGAGCCTTCCACATACGGAGTCACCTAGTGCAG", "binding signal": "15000 fluorescence intensity (a.u.)"}
{"sequence": "GATGGGAGTAAAGTTGCTTAGTGGGTGAGAGAGTGAATACCGGAGTCACCTAGTGCAG", "binding signal": "8090 fluorescence intensity (a.u.)"}
{"sequence": "ACATGTTTGACCATTCGTCTTATTCAAAAAATTTACGTAACGGAGTCACCTAGTGCAG", "binding signal": "8590 fluorescence intensity (a.u.)"}
{"sequence": "GAGGAGGAGGTGGAGCTACTGGTGGTGGTGGTGGTGGTGGCGGAGTCACCTAGTGCAG", "binding signal": "16200 fluorescence intensity (a.u.)"}
{"sequence": "AAACTTCCAACTTTTTCTATCACATCAACCTGTGATACACCGGAGTCACCTAGTGCAG", "binding signal": "8520 fluorescence intensity (a.u.)"}
{"sequence": "CATTCAGGTTCGTTGTTTTTAGATATGTTTCTCTTTTAAACGGAGTCACCTAGTGCAG", "binding signal": "10700 fluorescence intensity (a.u.)"}
{"sequence": "AGGGTTTGGTTGATTTTCGGATTTGGTTTGGTTTTGACGACGGAGTCACCTAGTGCAG", "binding signal": "13300 fluorescence intensity (a.u.)"}
